Values of other authors as cited in US20260158008A1, “POLYMORPHS OF THE MESYLATE SALT OF LINAPRAZAN GLURATE” (Cinclus Pharma Holding AB (Publ), priority 2021, published 2026).
At least one compound was matched to its structure with a doubt left.

Details: cited from earlier work

Cc1cccc(C)c1CNc1cc(C(=O)NCCOC(=O)CCCC(=O)O)cn2c(C)c(C)nc12 [Form A (free base)]
physical and chemical stability: good
